# Source: the supplement of paper PMC10735217
# This is one part of the list. This data set is noisy: repeats of one test often differ as much as different tests do.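 Human kidney-derived cells stably carry a construct in which eight TEAD-binding elements drive luciferase, measured by luminescence in a drug-repurposing library screen. A hit is any compound whose signal exceeds the plate mean by more than five robust Z scores.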
# Test system: HEK293A TEAD-LUC reporter
# Assay: TEAD-luciferase reporter activity (YAP activation), robust Z score vs plate; higher = stronger YAP/TEAD activation
# Conditions: 24 h
Structure (SMILES),TEAD-luciferase reporter activity (compound concentration: 200 nM),TEAD-luciferase reporter activity (compound concentration: 2 uM),TEAD-luciferase reporter activity (compound concentration: 10 uM)
C=C1/C(=C\C=C2/CCC[C@]3(C)[C@@H]([C@H](C)/C=C/[C@H](C)C(C)(C)O)CC[C@@H]23)C[C@@H](O)C[C@@H]1O [Ercalcitriol],inactive: -0.0962,inactive: 0.38,inactive: -0.447
COC(=O)C1=COC(C)C2CN3CCc4c([nH]c5ccccc45)C3CC12 (stereo not drawn),inactive: 2.5,inactive: -0.759,inactive: 2.1
CC(=O)/N=c1/sc(S(N)(=O)=O)nn1C,inactive: 0.506,inactive: -0.235,inactive: -0.38
Cc1cccc(/C=N/Nc2cc(N3CCOCC3)nc(OCCc3ccccn3)n2)c1 [Target 16],inactive: -2.14,,inactive: -1.03
Cc1cccc(/C=N/Nc2cc(N3CCOCC3)nc(OCCc3ccccn3)n2)c1 [Apilimod],,inactive: 0.507,
NCCCNc1ccc2c(CNCCO)nn3c4c(O)ccc(O)c4c(=O)c1c23,inactive: -1.42,inactive: 0.87,active: 5.08
CNCc1ccc(CSCCN/C(=N/S(C)(=O)=O)NCC(O)c2ccc(O)cc2)o1 (stereo not drawn),inactive: -2.36,inactive: 0.941,inactive: -0.0691
COc1cccc(C(=O)NC2CCN(c3ccc4ncc(-c5cccc(C(F)(F)F)c5)n4n3)CC2)c1,inactive: -1.15,,inactive: 1.65
CC1=C(C(=O)OCOC(=O)C(C)(C)C)N2C(=O)[C@@H](NC(=O)[C@H](N)c3ccccc3)[C@H]2SC1 [cefalexin pivoxil],inactive: -2.02,inactive: -1.01,inactive: -1.71
CC(n1ccnc1)C(O)(c1ccc(F)cc1)c1ccc(F)cc1 (stereo not drawn),inactive: 0.37,inactive: -0.3,inactive: -0.677
COc1cc(C(=O)NC[C@@H]2CC[C@H]3C[C@@H]2C3(C)C)nc2ccccc12,inactive: -1.15,,inactive: 4.35
c1ccc2c(SC3=NCCN3)c[nH]c2c1 [tinazoline],inactive: -1.62,inactive: -0.133,inactive: 0.0394
NCC(=O)N1Cc2ccccc2CC2(CCCCN2CC2CCCC2)C1 (stereo not drawn),inactive: -0.0449,,inactive: -0.121
COc1cc(C(C)=O)ccc1OCCCN1CCC(C(O)(c2ccc(F)cc2)c2ccc(F)cc2)CC1,inactive: -0.691,inactive: -1.2,inactive: 0.412
CC(C)=CCc1c(O)cc(O)c2c1OC(c1ccc(O)cc1)CC2=O (stereo not drawn) [8-Prenylnaringenin],inactive: -3.08,inactive: -1.71,inactive: 0.0409
Nc1n[n+]([O-])c2ccccc2[n+]1[O-] [Tirapazamine],inactive: -1.37,inactive: -0.516,inactive: 1.34
COc1cc(S(C)=O)sc1-c1nc2ccncc2[nH]1 (stereo not drawn) [Vasotrope],inactive: 2.91,inactive: -0.902,inactive: 1.3
O=C(O)c1ccc(Nc2ncc3c(n2)-c2ccc(Cl)cc2C(c2c(F)cccc2F)=NC3)cc1,inactive: -1.36,inactive: 1.63,inactive: -0.142
CCCCCCCCCCCCCC(=O)OCC(COP(=O)([O-])OCC[N+](C)(C)C)OC(=O)CCCCCCCCCCCCC (stereo not drawn),inactive: -1.65,inactive: -1.86,inactive: -1.04
COCCOc1c(OC)cc(Cc2cnc(N)nc2N)cc1OC [Tetroxoprim],inactive: 0.407,,inactive: 0.404
Cc1ccc(-c2nc(CCCC[C@H]3CO[C@@](C)(C(=O)O)OC3)c(C)o2)cc1,inactive: -1.29,inactive: -1.21,inactive: 0.528
CC(C)(Oc1ccc(Cl)cc1)C(=O)OCCCOC(=O)c1cccnc1,inactive: 0.405,inactive: 0.579,inactive: 0.775
CO[C@@]12[C@H](COC(N)=O)C3=C(C(=O)C(C)=C(N)C3=O)N1C[C@@H]1N[C@@H]12 [Mitomycin C from Streptomyces caespitosus],inactive: -2.08,,inactive: -0.521
CO[C@@]12[C@H](COC(N)=O)C3=C(C(=O)C(C)=C(N)C3=O)N1C[C@@H]1N[C@@H]12 [Mitomycin C],,inactive: -1.2,
COc1ccc(/C=C\c2cc(OC)c(OC)c(OC)c2)cc1NC(=O)[C@@H](N)CO,inactive: 4.07,active: 5.6,inactive: 3.37

Structure (SMILES),TEAD-luciferase reporter activity (compound concentration: 200 nM),TEAD-luciferase reporter activity (compound concentration: 2 uM),TEAD-luciferase reporter activity (compound concentration: 10 uM)
CS(=O)(=O)N(CCO)c1c(Cl)c(Cl)cc2[nH]c(=O)c(=O)[nH]c12,inactive: -0.252,inactive: -0.11,active: 6.39
COc1ccc2[nH]c(C)c(C(=O)CN3CCN(c4ccccc4OC)CC3)c2c1,inactive: -0.754,inactive: -0.61,inactive: 3.35
COc1ccc(CNc2cn[nH]c(=O)c2Cl)cc1OC,inactive: 1.94,inactive: -0.211,inactive: 2.44
CCOc1cc2cc(CO)c(CO)c(-c3ccnc(-n4nc(-c5cccnc5)c5ccccc5c4=O)c3)c2cc1OCC,inactive: -0.577,inactive: -0.919,inactive: 0.473
NCC(=O)N1CCCC2(Cc3ccccc3CN2C(=O)c2ccccc2)C1 (stereo not drawn),inactive: 2.37,,inactive: 0.037
Cc1cc(C(=O)NNCc2ccccc2)no1 [Isocarboxazid],inactive: -0.832,inactive: 0.23,inactive: -0.211
CC(C)(C)OC(=O)N1CCC(CNC(=O)c2cnc(Nc3cccc(Cl)c3)nc2C(F)(F)F)CC1,inactive: -1.39,inactive: -0.394,inactive: 1.95
O=C1NCCN1CCN1CCC(c2cn(-c3ccc(F)cc3)c3ccc(Cl)cc23)CC1 [sertindole],active: 8.27,inactive: -1.08,inactive: 1.6
OCc1cc(C(O)CNCCCCCCOCCCCc2ccccc2)ccc1O [(S)-salmeterol xinafrate],,inactive: -0.615,
OCc1cc(C(O)CNCCCCCCOCCCCc2ccccc2)ccc1O (stereo not drawn) [Salmeterol],inactive: -0.426,,inactive: 0.4
O=C1CCCCCN1C1CCN(Cc2ccc(F)cc2)CC1,inactive: -3.26,,inactive: 1.25
O=C(O)/C=C/c1nc(CSc2c(Cl)cccc2Cl)ccc1OCCc1ccccc1 [Ticolubant],inactive: 0.196,inactive: -0.456,inactive: 2.55
COc1ccc(OC)c(Cc2cnc3nc(N)nc(N)c3c2C)c1,inactive: -0.731,inactive: -0.418,inactive: -1.78
C#CCOc1ccc2c(c1)c(-c1ccc(C(C)C)cc1)nc(=O)n2Cc1ccc(OC)c(OCC)c1,inactive: -1.41,inactive: -1.83,inactive: 1.76
Cc1ccc2[nH]c3c(c2c1)CCC(NC(=O)Cc1ccc(F)cc1)C3 (stereo not drawn),inactive: -0.811,inactive: 1.44,inactive: -2.39
COc1ccc2c(c1)N(C(=O)OC(C)C)[C@@H](CSC)C(=O)N2,inactive: 0.00241,inactive: -0.145,inactive: 0.839
C[C@H]1c2cccc(O)c2C(=O)C2=C(O)[C@]3(O)C(=O)C(C(N)=O)=C(O)[C@@H](N(C)C)[C@@H]3[C@@H](O)[C@@H]21 [doxycycline],inactive: 0.463,,inactive: 2.62
C[C@H]1c2cccc(O)c2C(=O)C2=C(O)[C@]3(O)C(=O)C(C(N)=O)=C(O)[C@@H](N(C)C)[C@@H]3[C@@H](O)[C@@H]21 [doxycycline hyclate],,inactive: -0.603,
CCC[C@@H](N(NC(=O)c1cccc(OC)c1CC)C(=O)c1cc(C)cc(C)c1)C(C)(C)C [Veledimex],inactive: -1.12,inactive: -0.184,inactive: -0.222
CC(C)CC(NC(=O)CNC(=O)C(CCC(N)=O)NC(=O)C(CC(C)C)NC(=O)C(CC(C)C)NC(=O)C(CCCNC(=N)N)NC(=O)C(CCC(N)=O)NC(=O)C(CC(C)C)NC(=O)C(CCCNC(=N)N)NC(=O)C(C)NC(=O)C(CO)NC(=O)C(CC(=O)O)NC(=O)C(CCCNC(=N)N)NC(=O)C(CC(C)C)NC(=O)C(CCCNC(=N)N)NC(=O)C(CO)NC(=O)C(CC(C)C)NC(=O)C(CCC(=O)O)NC(=O)C(CO)NC(=O)C(NC(=O)C(Cc1ccccc1)NC(=O)C(NC(=O)CNC(=O)C(CC(=O)O)NC(=O)C(CO)NC(=O)C(N)Cc1ncc[nH]1)C(C)O)C(C)O)C(=O)NC(C(=O)O)C(C)C (stereo not drawn) [Secretin human],inactive: -2.49,inactive: -1.28,inactive: -1.72
CC(C)CC(NC(=O)CNC(=O)C(CCC(N)=O)NC(=O)C(CC(C)C)NC(=O)C(CC(C)C)NC(=O)C(CCCNC(=N)N)NC(=O)C(CCC(N)=O)NC(=O)C(CC(C)C)NC(=O)C(CCCNC(=N)N)NC(=O)C(C)NC(=O)C(CO)NC(=O)C(CC(=O)O)NC(=O)C(CCCNC(=N)N)NC(=O)C(CC(C)C)NC(=O)C(CCCNC(=N)N)NC(=O)C(CO)NC(=O)C(CC(C)C)NC(=O)C(CCC(=O)O)NC(=O)C(CO)NC(=O)C(NC(=O)C(Cc1ccccc1)NC(=O)C(NC(=O)CNC(=O)C(CC(=O)O)NC(=O)C(CO)NC(=O)C(N)Cc1ncc[nH]1)C(C)O)C(C)O)C(=O)NC(C(=O)O)C(C)C (stereo not drawn) [Secretin],inactive: -0.975,inactive: 0.253,inactive: -0.0809
CN(Cc1ccc(-c2ccccc2)cc1)CC1CCCCC1,inactive: -1.95,,inactive: 4.01
CCC[C@@]1(CC(=O)O)OCCc2c1[nH]c1c(C)ccc(C#N)c21,inactive: 1.06,inactive: -0.0167,inactive: 0.157
CCC(CC)C(c1ccc(Nc2nc3ccccc3s2)cc1)n1cncn1 (stereo not drawn) [Talarozole],active: 7.13,inactive: 1.82,active: 6.78

# Another view of some results above.
Structure (SMILES)	TEAD-luciferase reporter activity (compound concentration: 200 nM)	TEAD-luciferase reporter activity (compound concentration: 2 uM)	TEAD-luciferase reporter activity (compound concentration: 10 uM)
Cc1cc(C(=O)NNCc2ccccc2)no1 [Isocarboxazid]	inactive: -0.832	inactive: 0.23	inactive: -0.211
CC(C)(C)OC(=O)N1CCC(CNC(=O)c2cnc(Nc3cccc(Cl)c3)nc2C(F)(F)F)CC1	inactive: -1.39	inactive: -0.394	inactive: 1.95
